In the supplement of paper PMC10849652:
The other results are listed elsewhere or left out.

By UniProt entry, the sequences of proteins in these tests, tags left out. Where a name states a change or a piece, a line headed by the entry shows the natural chain unless it says otherwise.
UniProt Q13503: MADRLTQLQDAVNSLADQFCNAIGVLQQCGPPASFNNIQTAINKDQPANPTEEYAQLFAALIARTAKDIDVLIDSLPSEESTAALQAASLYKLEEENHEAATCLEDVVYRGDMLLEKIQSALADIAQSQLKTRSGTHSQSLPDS
UniProt Q7L590: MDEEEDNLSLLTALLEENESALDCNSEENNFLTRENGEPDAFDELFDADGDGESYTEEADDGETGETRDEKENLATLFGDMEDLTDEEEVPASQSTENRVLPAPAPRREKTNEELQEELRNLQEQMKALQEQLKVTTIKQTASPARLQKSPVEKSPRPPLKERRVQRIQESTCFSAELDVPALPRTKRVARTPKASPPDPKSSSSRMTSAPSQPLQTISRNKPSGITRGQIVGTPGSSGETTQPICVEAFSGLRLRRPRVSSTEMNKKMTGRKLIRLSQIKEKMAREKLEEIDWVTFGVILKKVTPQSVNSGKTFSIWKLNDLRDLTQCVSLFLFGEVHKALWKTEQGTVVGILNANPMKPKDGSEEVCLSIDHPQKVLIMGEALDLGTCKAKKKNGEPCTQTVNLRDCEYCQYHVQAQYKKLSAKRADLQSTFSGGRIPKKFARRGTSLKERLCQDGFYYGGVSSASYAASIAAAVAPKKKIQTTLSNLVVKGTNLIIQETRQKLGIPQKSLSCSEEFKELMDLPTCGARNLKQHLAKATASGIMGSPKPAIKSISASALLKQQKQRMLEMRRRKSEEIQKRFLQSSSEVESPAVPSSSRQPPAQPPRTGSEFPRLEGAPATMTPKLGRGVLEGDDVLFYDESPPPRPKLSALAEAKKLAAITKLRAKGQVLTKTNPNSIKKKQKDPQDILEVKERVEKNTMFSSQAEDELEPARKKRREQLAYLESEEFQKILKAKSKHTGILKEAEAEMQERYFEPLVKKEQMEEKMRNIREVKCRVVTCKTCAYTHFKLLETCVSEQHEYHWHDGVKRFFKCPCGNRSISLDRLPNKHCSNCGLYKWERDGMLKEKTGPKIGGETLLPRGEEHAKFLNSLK
UniProt Q9HCC0: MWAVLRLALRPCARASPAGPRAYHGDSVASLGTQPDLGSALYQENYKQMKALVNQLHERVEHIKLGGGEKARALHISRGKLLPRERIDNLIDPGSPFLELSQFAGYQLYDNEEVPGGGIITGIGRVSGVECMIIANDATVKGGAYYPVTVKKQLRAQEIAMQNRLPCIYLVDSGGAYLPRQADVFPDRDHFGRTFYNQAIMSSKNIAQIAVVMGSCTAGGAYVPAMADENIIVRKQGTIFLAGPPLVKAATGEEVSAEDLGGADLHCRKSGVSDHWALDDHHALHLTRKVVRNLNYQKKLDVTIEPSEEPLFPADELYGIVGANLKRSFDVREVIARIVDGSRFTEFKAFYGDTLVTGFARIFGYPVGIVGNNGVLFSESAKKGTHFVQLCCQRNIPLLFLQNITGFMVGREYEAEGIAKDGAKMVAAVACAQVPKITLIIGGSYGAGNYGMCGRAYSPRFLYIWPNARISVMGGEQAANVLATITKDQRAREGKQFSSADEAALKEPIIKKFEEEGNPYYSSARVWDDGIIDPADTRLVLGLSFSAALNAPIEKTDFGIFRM
UniProt P23368: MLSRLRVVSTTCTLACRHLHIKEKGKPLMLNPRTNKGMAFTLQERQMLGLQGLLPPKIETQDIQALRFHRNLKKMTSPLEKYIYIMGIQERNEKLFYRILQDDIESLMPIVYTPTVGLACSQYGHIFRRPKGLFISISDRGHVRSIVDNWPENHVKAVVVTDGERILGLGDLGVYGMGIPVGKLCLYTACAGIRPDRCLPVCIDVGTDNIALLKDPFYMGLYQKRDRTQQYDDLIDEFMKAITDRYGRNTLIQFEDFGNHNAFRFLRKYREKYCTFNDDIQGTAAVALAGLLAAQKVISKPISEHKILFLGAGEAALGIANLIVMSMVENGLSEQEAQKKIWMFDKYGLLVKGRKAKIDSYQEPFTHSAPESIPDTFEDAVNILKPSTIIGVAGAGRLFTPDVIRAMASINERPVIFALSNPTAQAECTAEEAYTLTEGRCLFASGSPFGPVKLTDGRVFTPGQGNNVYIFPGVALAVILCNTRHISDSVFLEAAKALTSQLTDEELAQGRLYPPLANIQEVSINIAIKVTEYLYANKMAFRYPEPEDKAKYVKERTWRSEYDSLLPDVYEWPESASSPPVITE
UniProt Q9H3U5: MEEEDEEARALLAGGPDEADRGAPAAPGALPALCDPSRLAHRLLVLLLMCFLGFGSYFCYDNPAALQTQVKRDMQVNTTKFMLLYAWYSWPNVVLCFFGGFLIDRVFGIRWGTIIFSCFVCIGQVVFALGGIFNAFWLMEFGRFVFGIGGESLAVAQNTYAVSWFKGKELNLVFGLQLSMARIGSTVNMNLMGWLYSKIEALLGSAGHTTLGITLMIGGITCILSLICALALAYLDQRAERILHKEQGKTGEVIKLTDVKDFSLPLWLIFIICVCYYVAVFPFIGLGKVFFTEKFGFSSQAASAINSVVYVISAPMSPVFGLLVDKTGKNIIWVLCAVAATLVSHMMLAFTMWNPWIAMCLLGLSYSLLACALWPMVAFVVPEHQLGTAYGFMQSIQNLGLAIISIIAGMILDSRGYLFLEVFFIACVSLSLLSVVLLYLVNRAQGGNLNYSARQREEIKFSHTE
UniProt Q9Y2X0: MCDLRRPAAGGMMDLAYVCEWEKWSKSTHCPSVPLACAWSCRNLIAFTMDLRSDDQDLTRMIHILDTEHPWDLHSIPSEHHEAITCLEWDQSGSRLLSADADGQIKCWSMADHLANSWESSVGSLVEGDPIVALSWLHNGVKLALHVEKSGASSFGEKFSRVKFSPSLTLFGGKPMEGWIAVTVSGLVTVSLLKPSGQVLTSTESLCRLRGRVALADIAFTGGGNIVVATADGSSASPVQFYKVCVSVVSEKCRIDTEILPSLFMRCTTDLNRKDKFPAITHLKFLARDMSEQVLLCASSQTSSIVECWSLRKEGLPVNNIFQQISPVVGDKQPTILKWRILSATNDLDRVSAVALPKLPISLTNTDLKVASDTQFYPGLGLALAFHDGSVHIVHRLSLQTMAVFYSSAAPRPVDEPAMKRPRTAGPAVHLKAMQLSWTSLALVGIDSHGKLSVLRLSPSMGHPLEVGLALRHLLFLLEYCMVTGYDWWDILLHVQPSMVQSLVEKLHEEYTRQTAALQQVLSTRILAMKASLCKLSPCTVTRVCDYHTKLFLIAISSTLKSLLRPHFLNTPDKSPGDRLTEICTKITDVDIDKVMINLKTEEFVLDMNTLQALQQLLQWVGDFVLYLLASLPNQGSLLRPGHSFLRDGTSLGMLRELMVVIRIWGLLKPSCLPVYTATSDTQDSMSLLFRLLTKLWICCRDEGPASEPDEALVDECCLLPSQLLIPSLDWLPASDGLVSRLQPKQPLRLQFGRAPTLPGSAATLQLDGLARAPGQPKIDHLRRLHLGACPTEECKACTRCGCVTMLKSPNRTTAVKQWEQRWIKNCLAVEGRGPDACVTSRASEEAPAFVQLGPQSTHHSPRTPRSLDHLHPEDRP
UniProt Q8NHS3: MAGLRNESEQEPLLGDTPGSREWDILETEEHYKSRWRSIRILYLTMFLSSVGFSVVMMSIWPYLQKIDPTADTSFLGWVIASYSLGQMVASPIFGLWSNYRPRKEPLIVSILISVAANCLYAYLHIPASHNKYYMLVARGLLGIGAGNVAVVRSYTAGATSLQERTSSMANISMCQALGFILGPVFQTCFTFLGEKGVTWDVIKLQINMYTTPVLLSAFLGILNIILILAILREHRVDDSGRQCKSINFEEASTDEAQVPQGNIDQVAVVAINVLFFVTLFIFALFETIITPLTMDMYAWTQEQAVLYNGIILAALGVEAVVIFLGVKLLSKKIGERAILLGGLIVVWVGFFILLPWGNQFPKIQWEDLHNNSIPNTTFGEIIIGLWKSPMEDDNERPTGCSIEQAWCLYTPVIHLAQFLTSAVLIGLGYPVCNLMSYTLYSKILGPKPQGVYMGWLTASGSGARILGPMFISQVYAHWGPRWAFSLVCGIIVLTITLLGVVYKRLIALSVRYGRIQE
UniProt Q9NVC6: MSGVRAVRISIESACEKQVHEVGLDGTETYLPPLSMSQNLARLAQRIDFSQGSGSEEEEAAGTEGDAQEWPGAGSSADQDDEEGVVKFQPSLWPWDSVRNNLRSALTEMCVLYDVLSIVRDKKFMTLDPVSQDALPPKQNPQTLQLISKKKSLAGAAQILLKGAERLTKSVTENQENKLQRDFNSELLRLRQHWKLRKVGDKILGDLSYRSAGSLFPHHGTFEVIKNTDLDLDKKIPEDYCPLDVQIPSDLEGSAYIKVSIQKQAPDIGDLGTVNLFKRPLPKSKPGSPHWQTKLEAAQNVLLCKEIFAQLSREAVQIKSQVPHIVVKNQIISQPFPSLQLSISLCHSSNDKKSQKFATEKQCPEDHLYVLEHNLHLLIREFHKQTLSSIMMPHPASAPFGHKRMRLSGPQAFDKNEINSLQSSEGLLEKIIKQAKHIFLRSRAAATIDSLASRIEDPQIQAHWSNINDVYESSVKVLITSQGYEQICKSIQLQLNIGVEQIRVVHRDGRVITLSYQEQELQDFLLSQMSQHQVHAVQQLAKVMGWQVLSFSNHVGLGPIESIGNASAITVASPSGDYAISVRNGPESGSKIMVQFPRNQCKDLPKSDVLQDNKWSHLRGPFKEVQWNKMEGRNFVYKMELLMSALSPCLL
UniProt Q14680: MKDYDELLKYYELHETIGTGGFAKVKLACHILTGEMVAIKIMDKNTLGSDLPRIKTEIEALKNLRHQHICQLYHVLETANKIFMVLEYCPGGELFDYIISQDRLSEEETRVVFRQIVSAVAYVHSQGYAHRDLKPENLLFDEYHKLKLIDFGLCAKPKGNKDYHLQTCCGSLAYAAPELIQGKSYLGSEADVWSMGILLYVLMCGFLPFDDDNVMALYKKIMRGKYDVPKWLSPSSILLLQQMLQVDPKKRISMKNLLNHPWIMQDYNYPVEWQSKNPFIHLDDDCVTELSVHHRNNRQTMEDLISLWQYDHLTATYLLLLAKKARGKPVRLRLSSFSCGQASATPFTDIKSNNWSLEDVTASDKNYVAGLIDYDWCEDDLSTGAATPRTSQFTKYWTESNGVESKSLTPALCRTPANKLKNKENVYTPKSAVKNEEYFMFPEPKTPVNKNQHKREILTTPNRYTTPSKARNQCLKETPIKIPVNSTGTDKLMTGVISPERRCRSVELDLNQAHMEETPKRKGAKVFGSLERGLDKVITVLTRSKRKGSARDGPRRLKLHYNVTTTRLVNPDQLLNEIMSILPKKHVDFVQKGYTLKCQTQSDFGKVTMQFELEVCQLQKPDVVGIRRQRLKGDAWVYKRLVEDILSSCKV
UniProt Q96AQ8: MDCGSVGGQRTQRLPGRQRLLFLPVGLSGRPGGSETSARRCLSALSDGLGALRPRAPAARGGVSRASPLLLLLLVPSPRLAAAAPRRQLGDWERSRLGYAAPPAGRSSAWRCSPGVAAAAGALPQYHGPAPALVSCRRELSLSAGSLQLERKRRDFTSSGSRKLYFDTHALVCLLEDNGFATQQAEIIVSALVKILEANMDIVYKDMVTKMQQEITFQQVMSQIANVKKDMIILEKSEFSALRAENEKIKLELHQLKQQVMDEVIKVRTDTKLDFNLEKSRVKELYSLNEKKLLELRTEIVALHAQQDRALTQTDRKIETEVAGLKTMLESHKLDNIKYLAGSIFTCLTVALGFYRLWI
UniProt Q9H204: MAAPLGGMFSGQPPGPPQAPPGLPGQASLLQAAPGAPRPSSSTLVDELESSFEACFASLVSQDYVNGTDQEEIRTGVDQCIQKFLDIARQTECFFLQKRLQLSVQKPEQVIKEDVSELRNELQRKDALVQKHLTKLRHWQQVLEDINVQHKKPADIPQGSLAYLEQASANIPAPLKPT
UniProt O14880: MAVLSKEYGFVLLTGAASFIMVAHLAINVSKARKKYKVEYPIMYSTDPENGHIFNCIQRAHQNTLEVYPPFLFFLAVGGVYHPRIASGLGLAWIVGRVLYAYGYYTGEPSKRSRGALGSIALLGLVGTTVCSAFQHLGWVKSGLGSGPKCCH
UniProt Q15528: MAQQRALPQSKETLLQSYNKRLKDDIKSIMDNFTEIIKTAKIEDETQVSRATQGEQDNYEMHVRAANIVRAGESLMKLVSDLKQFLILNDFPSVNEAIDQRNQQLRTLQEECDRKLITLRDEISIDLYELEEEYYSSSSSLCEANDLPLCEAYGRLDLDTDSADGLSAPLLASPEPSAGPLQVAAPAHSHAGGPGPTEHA
UniProt Q6P1Q9: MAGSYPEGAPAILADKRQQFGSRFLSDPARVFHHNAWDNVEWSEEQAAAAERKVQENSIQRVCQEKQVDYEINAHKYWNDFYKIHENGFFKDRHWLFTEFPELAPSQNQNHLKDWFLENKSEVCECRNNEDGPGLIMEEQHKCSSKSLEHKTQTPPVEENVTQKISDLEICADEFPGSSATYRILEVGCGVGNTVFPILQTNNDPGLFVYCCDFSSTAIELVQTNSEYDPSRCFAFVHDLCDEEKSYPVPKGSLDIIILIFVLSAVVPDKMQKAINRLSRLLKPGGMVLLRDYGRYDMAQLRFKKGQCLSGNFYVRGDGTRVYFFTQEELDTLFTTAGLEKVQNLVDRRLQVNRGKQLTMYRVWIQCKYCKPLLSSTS

How the values were obtained:
Test in all cases: log2 fold change, soluble protein after heating vs DMSO (PISA); higher = thermal stabilisation; K562 cells, 10 uM, 30 min; active = over 0.2 and 3.5 SD of the protein, either way, in both replicates (recomputed)
[1] = compound: CC[C@@H]1C(=O)N(C)c2cnc(Nc3ccc(C(=O)NC4CCN(C)CC4)cc3OC)nc2N1C1CCCC1
How it was run: (§1)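 Quantification of soluble protein used TMTpro 16plex LC-MS/MS, with channel sums equalised. Samples were the supernatant after 21,000xg for 90 min of pooled aliquots from K562 cells (2×10^6 cells/mL) treated with 10 μM compound for 30 min, heated for 3 min over 48°C-58°C, and extracted in PBS with 0.5% NP-40 at 4°C. Values, from duplicates, describe thermal stability against control samples on a log2 fold-change scale.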

volasertib = compound: CC[C@@H]1C(=O)N(C)c2cnc(Nc3ccc(C(=O)N[C@H]4CC[C@H](N5CCN(CC6CC6)CC5)CC4)cc3OC)nc2N1C(C)C [volasertib]
How it was run: as §1

[2] = compound: CC[C@H](C)N1C=C(C2=C(C=C(C=C21)C3=CN=C(C=C3)N4CCNCC4)C(=O)NCC5=C(C=C(NC5=O)C)C)C
How it was run: as §1

epoxomicin = compound: CC[C@H](C)[C@@H](C(=O)N[C@@H]([C@@H](C)O)C(=O)N[C@@H](CC(C)C)C(=O)[C@]1(CO1)C)NC(=O)[C@H]([C@@H](C)CC)N(C)C(=O)C [epoxomicin]
How it was run: as §1

[3] = compound: CCn1cc(-c2ccnc3[nH]c(-c4cccc(CN(C)C)c4)cc23)c(-c2ccc(NC(=O)N(C)C)cc2)n1
How it was run: as §1

[4] = compound: CN(C)CC(=O)Nc1ccc2[nH]c(=O)c3ccccc3c2c1
How it was run: as §1

[5] = compound: CN1C2=C(C3=C1C(=O)N(N=C3)CC4=CC(=CC=C4)N)SC(=C2)S(=O)C
How it was run: as §1

[6] = compound: CN1CCC(CNc2ccc3ncc(-c4cccc(OC(F)(F)F)c4)n3n2)CC1
How it was run: as §1

[7] = compound: CCn1c(C(=O)N(C2CC2)C2CC2)cc2c3c(ncn3C)c(Nc3cc(C)n(C)n3)nc21
How it was run: as §1

rosiglitazone = compound: CN(CCOC1=CC=C(C=C1)C[C@H]2C(=O)NC(=O)S2)C3=CC=CC=N3 (racemic) [rosiglitazone]
How it was run: as §1

Measured: log2 fold change

METTL18 (UniProt O95568)
inactive: [1] 0.02 | volasertib -0.159 | [2] 0.032 | epoxomicin -0.058 | [3] 0 | [4] 0.006 | [5] 0.005 | [6] 0.015

MATR3 (UniProt P43243)
inactive: [1] -0.032 | [2] 0.09 | epoxomicin 0.093 | [7] -0.264 | [3] 0.11 | [4] -0.022 | rosiglitazone -0.151 | [5] 0.314 | [6] 0.099

MFSD11 (UniProt O43934)
active: [6] -0.345
inactive: [1] -0.244 | volasertib 0.021 | [2] -0.108 | epoxomicin 0.03 | [3] 0.021 | [4] 0.017 | [5] -0.026

Copied from the listing (2 entries):
METTL18 (UniProt O95568)
inactive: [1] 0.02 | volasertib -0.159 | [2] 0.032 | epoxomicin -0.058 | [3] 0 | [4] 0.006 | [5] 0.005 | [6] 0.015

MATR3 (UniProt P43243)
inactive: [1] -0.032 | [2] 0.09 | epoxomicin 0.093 | [7] -0.264 | [3] 0.11 | [4] -0.022 | rosiglitazone -0.151 | [5] 0.314 | [6] 0.099

Remaining list, next part.

MED21 (UniProt Q13503)
inactive: [1] 0.139 | volasertib 0.052 | [2] -0.002 | [3] 0.142 | [6] 0.121

MCM10 (UniProt Q7L590)
inactive: [1] -0.074 | volasertib 0 | [2] -0.034 | epoxomicin 0.148 | [3] -0.037 | [4] -0.023 | [6] 0.096

MCU (UniProt Q8NE86)
inactive: [1] -0.147 | [2] 0.014 | epoxomicin 0.075 | [3] -0.048 | [4] 0.011 | [5] -0.045
active: volasertib -0.249 | [6] -0.23

MFGE8 (UniProt Q08431)
inactive: [1] 0.061 | volasertib 0.362 | [2] -0.007 | epoxomicin -0.003 | [3] -0.057 | [4] -0.103 | [5] 0.114 | [6] 0.098

MCCC2 (UniProt Q9HCC0)
inactive: [1] 0.003 | volasertib 0.038 | [2] -0.032 | epoxomicin -0.018 | [3] -0.013 | [4] 0.003 | [5] -0.031 | [6] 0.027

MFSD5 isoform 2 (UniProt Q6N075)
active: epoxomicin 0.427
inactive: [1] 0.052 | volasertib 0.111 | [2] -0.124 | [3] 0.028 | [4] -0.092 | [5] -0.056 | [6] 0.14

ME2 (UniProt P23368)
active: volasertib 0.445
inactive: [1] 0.164 | [2] 0.006 | epoxomicin 0.108 | [3] -0.015 | [4] -0.002 | [5] -0.02 | [6] 0.145

MFSD1 isoform 6 (UniProt Q9H3U5)
inactive: [1] -0.022 | volasertib 0.053 | [2] -0.01 | epoxomicin 0 | [3] -0.069 | [4] -0.025 | [6] -0.012

METTL26 (UniProt Q96S19)
inactive: [1] -0.006 | volasertib -0.108 | [2] 0.024 | [7] -0.05 | rosiglitazone 0.066

MED16 (UniProt Q9Y2X0)
inactive: [1] 0.128 | volasertib 0.101 | [2] 0.004 | epoxomicin -0.262 | [3] 0.031 | [4] 0.086 | [5] 0.087 | [6] 0.06

MCRIP2 (UniProt Q9BUT9)
inactive: [1] -0.035 | volasertib -0.083 | epoxomicin -0.16 | [7] -0.042 | [3] -0.118 | rosiglitazone -0.005 | [5] 0.063 | [6] -0.037

MFSD8 (UniProt Q8NHS3)
inactive: [1] -0.016 | volasertib 0.032 | epoxomicin -0.021 | [3] -0.012 | [4] -0.061 | [5] 0.046 | [6] 0.127

MED17 (UniProt Q9NVC6)
inactive: [1] -0.011 | volasertib -0.021 | [2] -0.008 | epoxomicin -0.015 | [3] 0.08 | [4] 0.037 | [5] 0.036 | [6] -0.134

MED12 isoform 2 (UniProt Q93074)
inactive: [1] -0.055 | volasertib -0.211 | [2] 0.091 | epoxomicin -0.17 | [3] 0.086 | [5] 0.154 | [6] -0.071

MELK (UniProt Q14680)
inactive: [1] -0.429 | [2] 0.334 | epoxomicin 0.077 | [3] -0.114 | [5] 0.034 | [6] -0.426
active: volasertib -1.41

MED1 (UniProt Q15648)
inactive: [1] 0.073 | volasertib 0.077 | [2] 0.076 | epoxomicin -0.051 | [3] -0.04 | [4] -0.054 | [5] 0.024 | [6] -0.025

MEGF8 (UniProt Q7Z7M0)
inactive: [1] 0.197 | [2] -0.072

MEAK7 (UniProt Q6P9B6)
active: volasertib -0.473
inactive: [1] -0.084 | [2] 0.039 | epoxomicin 0.067 | [3] -0.03 | [4] -0.046 | [5] -0.033 | [6] -0.097

MIA2 (UniProt Q96PC5)
inactive: [1] -0.039 | [2] 0.005 | epoxomicin 0.037 | [3] 0.054 | [4] 0.005 | [5] 0.031 | [6] 0.053
active: volasertib -0.29

MEPCE (UniProt Q7L2J0)
inactive: [1] -0.07 | volasertib -0.209 | [2] 0.052 | epoxomicin -0.053 | [3] -0.013 | [4] 0.061 | [5] 0.007 | [6] -0.051

METAP1D (UniProt Q6UB28)
inactive: [1] 0.031 | volasertib -0.082 | [2] 0.051 | epoxomicin 0.074 | [4] -0.065 | [5] 0.052

MCUR1 (UniProt Q96AQ8)
inactive: [1] 0.022 | volasertib 0.137 | [2] 0.006 | epoxomicin 0.009 | [3] -0.041 | [4] -0.038 | [5] -0.042 | [6] -0.115

MFF (UniProt Q9GZY8)
inactive: [1] -0.007 | volasertib 0 | [2] -0.046 | epoxomicin 0.037 | [3] 0.043 | [4] -0.031 | [5] 0.031
active: [6] -0.386

MED28 (UniProt Q9H204)
inactive: [1] 0.035 | volasertib -0.075 | [2] 0.049 | [7] 0.125 | [3] -0.145 | rosiglitazone -0.036 | [5] -0.01 | [6] 0.028

MGST3 (UniProt O14880)
inactive: [1] -0.005 | volasertib 0.048 | [2] -0.107 | epoxomicin -0.016 | [3] -0.047 | [4] -0.017 | [5] -0.027 | [6] 0.097

MED22 (UniProt Q15528)
inactive: [1] 0.133 | [2] 0.097 | epoxomicin 0.02 | [4] -0.019 | [5] -0.043

METTL2B (UniProt Q6P1Q9)
inactive: epoxomicin 0.017 | [3] 0.027 | [4] 0.055 | [5] 0.184 | [6] -0.003

MED13L (UniProt Q71F56)
inactive: volasertib -0.211 | epoxomicin 0.021 | [7] -0.148 | [4] 0.115

MFSD6 (UniProt Q6ZSS7)
inactive: [2] -0.041 | epoxomicin -0.077 | [7] 0.002 | [3] 0.004 | [4] 0.049 | rosiglitazone -0.005 | [5] -0.014 | [6] 0.043
